# From the supplement of paper PMC8728848
# This is one part of the list.
# B1: SP15308B-bot-339-22-339 (Bacteroides ovatus) (protein)
# chain: NEWEDEQYEQYVSFKAPIASGSDGVTTIYVRYKDNGKVTYQLPIIVSGSTVNSQDRDIHIAVDKDTLKTLNIERFSLYRPELWYTEMEEDKYEFPETVHIPAGSCVELLNIDFNLQDIDMLEKWVLPLTIVDDGSYAYQSHPRKNYAKALLKVVPFNNYSGSYTASSMKVYTYINGKPDTNARTTDKRTGYVVDNNSIFFYAGLINEDMDKDMRKKYKINVHFKEDGTLDMKQDDPSNEMEFELIGTPTYSSTSVMDATRPYLERRYVQIMFEYDFQDFTYGGSGTEVIPIKYRVAGSMTLLRNINTQIPDEDQQIEW
# Key:
# Test in all cases: glycan array binding signal (z-score within array); higher = stronger binding
# Details in all cases: glycan notation: IUPAC condensed, linker removed
# Fuc(a1-2)Gal = molecular target: Fuc(a1-2)Gal
# Outline: (§1)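 Arrays were curated from the Consortium for Functional Glycomics database, 3228 in total, and kept only where the protein sequence was available. Binding is expressed as a within-array Z-score. This score was averaged across arrays of the same protein sequence at different concentrations or buffers and across linkers, and negative values can be read as non-binding.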
# Fuc(a1-2)Gal(b1-3)GalNAc = molecular target: Fuc(a1-2)Gal(b1-3)GalNAc
# Outline: as §1
# [1] = molecular target: Fuc(a1-2)Gal(b1-3)GalNAc(a1-3)[Fuc(a1-2)]Gal(b1-4)Glc
# Outline: as §1
# [2] = molecular target: Fuc(a1-2)Gal(b1-3)GalNAc(a1-3)[Fuc(a1-2)]Gal(b1-4)GlcNAc
# Outline: as §1
# [3] = molecular target: Fuc(a1-2)Gal(b1-3)GalNAc(b1-3)Gal
# Outline: as §1
# [4] = molecular target: Fuc(a1-2)Gal(b1-3)GalNAc(b1-3)Gal(a1-4)Gal(b1-4)Glc
# Outline: as §1
# [5] = molecular target: Fuc(a1-2)Gal(b1-3)GalNAc(b1-4)[Neu5Ac(a2-3)]Gal(b1-4)Glc
# Outline: as §1
# Fuc(a1-2)Gal(b1-3)GlcNAc = molecular target: Fuc(a1-2)Gal(b1-3)GlcNAc
# Outline: as §1
# [6] = molecular target: Fuc(a1-2)Gal(b1-3)GlcNAc(b1-2)Man(a1-3)[Fuc(a1-2)Gal(b1-3)GlcNAc(b1-2)Man(a1-6)]Man(b1-4)GlcNAc(b1-4)GlcNAc
# Outline: as §1
# [7] = molecular target: Fuc(a1-2)Gal(b1-3)GlcNAc(b1-2)Man(a1-3)[Fuc(a1-2)Gal(b1-3)GlcNAc(b1-2)Man(a1-6)]Man(b1-4)GlcNAc(b1-4)[Fuc(a1-6)]GlcNAc
# Outline: as §1
# [8] = molecular target: Fuc(a1-2)Gal(b1-3)GlcNAc(b1-3)Gal(b1-4)Glc
# Outline: as §1
# [9] = molecular target: Fuc(a1-2)Gal(b1-3)GlcNAc(b1-3)GalNAc
# Outline: as §1
# [10] = molecular target: Fuc(a1-2)Gal(b1-3)GlcNAc(b1-3)[Fuc(a1-2)Gal(b1-3)GlcNAc(b1-6)]GalNAc
# Outline: as §1
# [11] = molecular target: Fuc(a1-2)Gal(b1-3)GlcNAc(b1-3)[Gal(b1-4)GlcNAc(b1-6)]Gal(b1-4)Glc
# Outline: as §1
# [12] = molecular target: Fuc(a1-2)Gal(b1-3)GlcNAc(b1-3)[Neu5Ac(a2-6)Gal(b1-4)GlcNAc(b1-6)]Gal(b1-4)Glc
# Outline: as §1
# [13] = molecular target: Fuc(a1-2)Gal(b1-3)GlcNAc6S
# Outline: as §1
# [14] = molecular target: Fuc(a1-2)Gal(b1-3)[Fuc(a1-4)]GlcNAc
# Outline: as §1
# [15] = molecular target: Fuc(a1-2)Gal(b1-3)[Fuc(a1-4)]GlcNAc(b1-2)Man(a1-3)[Fuc(a1-2)Gal(b1-3)[Fuc(a1-4)]GlcNAc(b1-2)Man(a1-3)]Man(b1-4)GlcNAc(b1-4)GlcNAc
# Outline: as §1
# [16] = molecular target: Fuc(a1-2)Gal(b1-3)[Fuc(a1-4)]GlcNAc(b1-2)Man(a1-3)[Fuc(a1-2)Gal(b1-3)[Fuc(a1-4)]GlcNAc(b1-2)Man(a1-6)]Man(b1-4)GlcNAc(b1-4)[Fuc(a1-6)]GlcNAc(b1-4)[Fuc(a1-6)]GlcNAc
# Outline: as §1
# [17] = molecular target: Fuc(a1-2)Gal(b1-3)[Fuc(a1-4)]GlcNAc(b1-3)[Fuc(a1-3)[Gal(b1-4)]GlcNAc(b1-6)]Gal(b1-4)Glc
# Outline: as §1
# [18] = molecular target: Fuc(a1-2)Gal(b1-3)[Fuc(a1-4)]GlcNAc(b1-3)[Gal(b1-4)GlcNAc(b1-6)]Gal(b1-4)Glc
# Outline: as §1
# [19] = molecular target: Fuc(a1-2)Gal(b1-4)Fuc(a1-3)]GlcNAc(b1-2)Man(a1-3)[Fuc(a1-2)Gal(b1-4)[Fuc(a1-3)]GlcNAc(b1-2)Man(a1-6)]Man(b1-4)GlcNAc(b1-4)GlcNAc
# Outline: as §1
# Fuc(a1-2)Gal(b1-4)Glc = molecular target: Fuc(a1-2)Gal(b1-4)Glc
# Outline: as §1
# Fuc(a1-2)Gal(b1-4)Glc6S = molecular target: Fuc(a1-2)Gal(b1-4)Glc6S
# Outline: as §1
# Fuc(a1-2)Gal(b1-4)GlcNAc = molecular target: Fuc(a1-2)Gal(b1-4)GlcNAc
# Outline: as §1
# [20] = molecular target: Fuc(a1-2)Gal(b1-4)GlcNAc(b1-2)Man
# Outline: as §1
# [21] = molecular target: Fuc(a1-2)Gal(b1-4)GlcNAc(b1-2)Man(a1-3)[Fuc(a1-2)Gal(b1-4)GlcNAc(b1-2)Man(a1-6)]Man(b1-4)GlcNAc(b1-4)GlcNAc
# Outline: as §1
# [22] = molecular target: Fuc(a1-2)Gal(b1-4)GlcNAc(b1-2)Man(a1-3)[Fuc(a1-2)Gal(b1-4)GlcNAc(b1-2)Man(a1-6)]Man(b1-4)GlcNAc(b1-4)[Fuc(a1-6)]GlcNAc
# Outline: as §1
# [23] = molecular target: Fuc(a1-2)Gal(b1-4)GlcNAc(b1-2)[Fuc(a1-2)Gal(b1-4)GlcNAc(b1-4)]Man(a1-3)[Fuc(a1-2)Gal(b1-4)GlcNAc(b1-2)Man(a1-6)]Man(b1-4)GlcNAc(b1-4)GlcNAc
# Outline: as §1
# [24] = molecular target: Fuc(a1-2)Gal(b1-4)GlcNAc(b1-3)Gal(b1-4)GlcNAc
# Outline: as §1
binder,measurement,setting,value
B1,glycan array binding signal (z-score),Fuc(a1-2)Gal,-0.344
same,glycan array binding signal (z-score),Fuc(a1-2)Gal(b1-3)GalNAc,-0.379
same,glycan array binding signal (z-score),[1],-0.613
same,glycan array binding signal (z-score),[2],-0.366
same,glycan array binding signal (z-score),[3],-0.054
same,glycan array binding signal (z-score),[4],-0.142
same,glycan array binding signal (z-score),[5],-0.117
same,glycan array binding signal (z-score),Fuc(a1-2)Gal(b1-3)GlcNAc,-0.144
same,glycan array binding signal (z-score),[6],0.297
same,glycan array binding signal (z-score),[7],-0.245
same,glycan array binding signal (z-score),[8],-0.507
same,glycan array binding signal (z-score),[9],-0.737
same,glycan array binding signal (z-score),[10],0.592
same,glycan array binding signal (z-score),[11],-0.492
same,glycan array binding signal (z-score),[12],-0.481
same,glycan array binding signal (z-score),[13],1.23
same,glycan array binding signal (z-score),[14],-0.475
same,glycan array binding signal (z-score),[15],-0.198
same,glycan array binding signal (z-score),[16],0.336
same,glycan array binding signal (z-score),[17],0.141
same,glycan array binding signal (z-score),[18],0.02
same,glycan array binding signal (z-score),[19],0.796
same,glycan array binding signal (z-score),Fuc(a1-2)Gal(b1-4)Glc,-0.188
same,glycan array binding signal (z-score),Fuc(a1-2)Gal(b1-4)Glc6S,0.38
same,glycan array binding signal (z-score),Fuc(a1-2)Gal(b1-4)GlcNAc,-0.027
same,glycan array binding signal (z-score),[20],-0.211
same,glycan array binding signal (z-score),[21],0.848
same,glycan array binding signal (z-score),[22],-0.321
same,glycan array binding signal (z-score),[23],0.217
same,glycan array binding signal (z-score),[24],-0.58

# Looked up one by one from the entries so far, 2 records:
binder,measurement,setting,value
B1,glycan array binding signal (z-score),[19],0.796
same,glycan array binding signal (z-score),[15],-0.198
